Results are given in words; binding and its absence hold for the method and conditions named. Some results given as binding are weak or reduced against the parent protein; the word gives no strength. Where a sequence is shown, tags or fusion partners need not be part of it.
T1: MBP-tagged full-length PRG-1 (C. elegans, UniProt P90786 1-824, Atto-594 label (in the cluster imaging only))
T1 construct: PRG-1, the PIWI protein of C. elegans, full length; Cloned into pMAL-C5X; Unlabelled in the MST titration; also called MBP-PRG-1; MBP-PRG; source: E. coli BL21 (DE3), purified (RNaseA-treated lysate, amylose resin, size-exclusion chromatography)
T1 sequence (looked up): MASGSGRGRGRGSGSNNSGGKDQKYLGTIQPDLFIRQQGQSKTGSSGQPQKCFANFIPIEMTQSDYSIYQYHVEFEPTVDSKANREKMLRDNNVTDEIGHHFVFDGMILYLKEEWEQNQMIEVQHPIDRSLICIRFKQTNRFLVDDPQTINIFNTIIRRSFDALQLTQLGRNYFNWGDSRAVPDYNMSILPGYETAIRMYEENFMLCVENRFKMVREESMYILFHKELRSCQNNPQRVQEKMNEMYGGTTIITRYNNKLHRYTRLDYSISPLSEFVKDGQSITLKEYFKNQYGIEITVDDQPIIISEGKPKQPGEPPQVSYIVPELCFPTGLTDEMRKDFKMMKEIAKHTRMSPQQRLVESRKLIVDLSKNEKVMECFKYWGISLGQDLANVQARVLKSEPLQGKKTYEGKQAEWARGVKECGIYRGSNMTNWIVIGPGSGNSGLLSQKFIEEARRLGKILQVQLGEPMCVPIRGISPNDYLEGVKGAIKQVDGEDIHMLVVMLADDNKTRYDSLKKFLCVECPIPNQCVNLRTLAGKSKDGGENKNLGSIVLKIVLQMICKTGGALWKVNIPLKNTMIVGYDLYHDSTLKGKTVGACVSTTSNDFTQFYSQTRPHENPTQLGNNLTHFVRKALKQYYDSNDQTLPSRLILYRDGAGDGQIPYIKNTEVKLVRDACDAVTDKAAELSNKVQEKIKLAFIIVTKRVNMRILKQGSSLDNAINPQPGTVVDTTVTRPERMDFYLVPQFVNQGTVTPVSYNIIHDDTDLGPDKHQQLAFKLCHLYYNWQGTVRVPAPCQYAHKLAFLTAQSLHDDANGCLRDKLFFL

T2: MBP-tagged full-length DEPS-1 (C. elegans) (UniProt Q9N303)
T2 sequence (chain, atto-488 NHS ester label): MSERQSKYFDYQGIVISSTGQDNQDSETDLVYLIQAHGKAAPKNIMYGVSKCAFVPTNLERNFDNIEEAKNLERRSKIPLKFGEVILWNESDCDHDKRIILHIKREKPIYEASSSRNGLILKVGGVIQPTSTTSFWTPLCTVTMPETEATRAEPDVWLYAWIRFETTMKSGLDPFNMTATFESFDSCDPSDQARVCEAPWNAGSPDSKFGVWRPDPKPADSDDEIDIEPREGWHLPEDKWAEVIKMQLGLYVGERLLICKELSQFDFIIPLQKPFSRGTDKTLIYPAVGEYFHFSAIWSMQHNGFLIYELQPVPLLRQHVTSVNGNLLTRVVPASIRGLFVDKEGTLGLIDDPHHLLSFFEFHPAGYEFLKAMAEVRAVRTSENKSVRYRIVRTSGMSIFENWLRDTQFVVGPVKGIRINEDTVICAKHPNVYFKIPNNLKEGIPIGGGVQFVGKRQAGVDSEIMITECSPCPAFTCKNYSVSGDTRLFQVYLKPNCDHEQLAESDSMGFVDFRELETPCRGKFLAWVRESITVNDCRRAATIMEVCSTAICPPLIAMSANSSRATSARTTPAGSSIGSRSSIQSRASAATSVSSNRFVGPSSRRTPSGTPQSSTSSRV


What was measured:
[1] = biological target: T1, MBP-tagged full-length PRG-1; assay: confocal imaging of labelled recombinant protein clusters; 3.4 µM Atto-488 MBP-DEPS-1 with 0.6 µM Atto-594 MBP-PRG-1 in 5% PEG2000; PRG-1 preincubated with 2 mM DEPS-1 PBS peptide or 2 mM FGFR2 peptide; both purified
[2] = biological target: T2, MBP-tagged full-length DEPS-1 (C. elegans); assay: as above

Row | Binder | binding [1] | binding [2]
1 | IPLKFGEVILWNESDCDHDK (atto-488 NHS ester label (in the MST assay)) [DEPS-1 PBS motif peptide] | binds | –
2 | MBP-tagged full-length PRG-1 (protein, UniProt P90786 1-824, Atto-594 label (in the cluster imaging only)) MASGSGRGRGRGSGSNNSGGKDQKYLGTIQPDLFIRQQGQSKTGSSGQPQKCFANFIPIEMTQSDYSIYQYHVEFEPTVDSKANREKMLRDNNVTDEIGHHFVFDGMILYLKEEWEQNQMIEVQHPIDRSLICIRFKQTNRFLVDDPQTINIFNTIIRRSFDALQLTQLGRNYFNWGDSRAVPDYNMSILPGYETAIRMYEENFMLCVENRFKMVREESMYILFHKELRSCQNNPQRVQEKMNEMYGGTTIITRYNNKLHRYTRLDYSISPLSEFVKDGQSITLKEYFKNQYGIEITVDDQPIIISEGKPKQPGEPPQVSYIVPELCFPTGLTDEMRKDFKMMKEIAKHTRMSPQQRLVESRKLIVDLSKNEKVMECFKYWGISLGQDLANVQARVLKSEPLQGKKTYEGKQAEWARGVKECGIYRGSNMTNWIVIGPGSGNSGLLSQKFIEEARRLGKILQVQLGEPMCVPIRGISPNDYLEGVKGAIKQVDGEDIHMLVVMLADDNKTRYDSLKKFLCVECPIPNQCVNLRTLAGKSKDGGENKNLGSIVLKIVLQMICKTGGALWKVNIPLKNTMIVGYDLYHDSTLKGKTVGACVSTTSNDFTQFYSQTRPHENPTQLGNNLTHFVRKALKQYYDSNDQTLPSRLILYRDGAGDGQIPYIKNTEVKLVRDACDAVTDKAAELSNKVQEKIKLAFIIVTKRVNMRILKQGSSLDNAINPQPGTVVDTTVTRPERMDFYLVPQFVNQGTVTPVSYNIIHDDTDLGPDKHQQLAFKLCHLYYNWQGTVRVPAPCQYAHKLAFLTAQSLHDDANGCLRDKLFFL | – | binds
